Source: patent US20160319367A1, “MEANS AND METHODS FOR TYPING A BREAST CANCER PATIENT AND ASSIGNING THERAPY BASED ON THE TYPING” (STICHTING HET NEDERLANDS KANKER INSTITUUT-ANTONI VAN …, priority 2013, published 2016)

System: ZR-75-1 cells
Assay: Colony formation / proliferation assay in ZR-75-1 cells
Format: cell-based, human
Details: 1 μM 4OH-tamoxifen or 10^-7 M fulvestrant
Protocol: The human breast cancer cell lines ZR-75-1 (ATCC CRL-1500), MDA-MB-231 (ATCC HTB-26) and T47D (ATCC HTB133) were cultured in DMEM supplemented with 10% FCS, 2 mM glutamine, 100 μg/ml penicillin, 100 μg/ml streptomycin, and 1 nM estradiol at 37° C. in 5% CO2. […] Phoenix cells (ATCC CRL-3214) were cultured at 37° C. in 5% CO2 in DMEM with 10% FCS, 2 mM glutamine, 100 μg/ml penicillin, and 100 μg/ml streptomycin.
Cells were infected with retroviral supernatant and selected with puromycin (2.0 μg/ml). […] When colonies appeared, cells were fixed in MeOH/HAc (3:1) and subsequently stained with 50% MeOH/10% HAc/0.1% Coomassie.

**Q.** How did the cell proliferation turn out when CC/C(=C(\c1ccccc1)c1ccc(OCCN(C)C)cc1)c1ccccc1.O=C(O)CC(O)(CC(=O)O)C(=O)O [tamoxifen, (Z)2-[4-(1,2-diphenyl-1-butenyl)phenoxy]-N, N-dimethylethanamine 2-hydroxy-1,2,3-propanetricarboxylate (1:1)] was run?
**A.** proliferation arrest
